Source: the supplement of paper PMC6078165

Tested on: HCC1143
Test: relative JC-1 red fluorescence (viability) vs pre-drug, coculture with fibroblast (fraction); higher = more viable cancer cells
Description: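 JC-1 labelled TNBC cells cocultured 1:1 (1,500 cells each) with CellTrace Violet stained primary or stromal fibroblasts in 384-well plates in FluoroBrite medium, treated with one of 42 anticancer drugs at 0.1, 1, 10 or 100 uM. JC-1 red fluorescence (mitochondrial integrity in cancer cells only) was read by plate reader every 8 h for 72 h. Values are normalised to each well's pre-drug value. The stock of one drug was tenfold lower, so its dose labels may be too high.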

Nc1ncn([C@@H]2O[C@H](CO)[C@@H](O)[C@H]2O)c(=O)n1 [Azacitidine]
relative JC-1 red fluorescence
Settings | 8 h | 16 h | 24 h | 32 h | 40 h | 48 h | 56 h | 64 h | 72 h
0.1 µM, coculture fibroblast: C12385 | 0.81837 | 0.767 | 0.739 | 0.697 | 0.634 | 0.626 | 0.603 | 0.597 | 0.597
0.1 µM, coculture fibroblast: H6013 | 0.801 | 0.764 | 0.73 | 0.725 | 0.685 | 0.688 | 0.665 | 0.647 | 0.592
0.1 µM, coculture fibroblast: H6019 | 0.816 | 0.74 | 0.686 | 0.6238 | 0.57278 | 0.557 | 0.498 | 0.449 | 0.418
0.1 µM, coculture fibroblast: H6076 | 0.8231 | 0.806 | 0.788 | 0.786 | 0.734 | 0.738 | 0.722 | 0.708 | 0.741
0.1 µM, coculture fibroblast: H6231 | 0.816 | 0.787 | 0.72 | 0.669 | 0.626 | 0.603 | 0.568 | 0.538 | 0.524
0.1 µM, coculture fibroblast: HADF | 0.776 | 0.732 | 0.701 | 0.697 | 0.629 | 0.627 | 0.603 | 0.592 | 0.56
0.1 µM, coculture fibroblast: HCFa | 0.7914 | 0.734 | 0.69435 | 0.6781 | 0.6054 | 0.59502 | 0.551 | 0.519 | 0.5
0.1 µM, coculture fibroblast: HCPF | 0.828 | 0.825 | 0.787 | 0.734 | 0.709 | 0.695 | 0.677 | 0.648 | 0.645
0.1 µM, coculture fibroblast: HHSteC | 0.884 | 0.84 | 0.805 | 0.777 | 0.721 | 0.708 | 0.673 | 0.657 | 0.604
0.1 µM, coculture fibroblast: HMF | 0.8 | 0.817 | 0.743 | 0.6569 | 0.6422 | 0.617 | 0.578 | 0.557 | 0.531
0.1 µM, coculture fibroblast: HPFa | 0.8818 | 0.81 | 0.794 | 0.7 | 0.658 | 0.633 | 0.584 | 0.55 | 0.519
0.1 µM, coculture fibroblast: HUF | 0.868 | 0.797 | 0.744 | 0.676 | 0.631 | 0.61 | 0.56 | 0.534 | 0.511
0.1 µM, coculture fibroblast: Hs5 | 0.8615 | 0.867 | 0.837 | 0.823 | 0.745 | 0.71987 | 0.699 | 0.679 | 0.686
0.1 µM, coculture fibroblast: Hs27A | 0.76 | 0.7428 | 0.7075 | 0.7274 | 0.632 | 0.6427 | 0.6119 | 0.602 | 0.564
0.1 µM, coculture fibroblast: Hs343T | 0.8186 | 0.836 | 0.781 | 0.7032 | 0.683 | 0.641 | 0.6032 | 0.579 | 0.559
0.1 µM, coculture fibroblast: WS1 | 0.814 | 0.7284 | 0.685 | 0.6046 | 0.548 | 0.526 | 0.49 | 0.471 | 0.456
1 µM, coculture fibroblast: C12385 | 0.8501 | 0.753 | 0.696 | 0.623 | 0.553 | 0.507 | 0.462 | 0.424 | 0.4
1 µM, coculture fibroblast: H6013 | 0.721 | 0.646 | 0.601 | 0.58 | 0.511 | 0.494 | 0.467 | 0.449 | 0.427
1 µM, coculture fibroblast: H6019 | 0.801 | 0.747 | 0.696 | 0.639 | 0.588 | 0.57 | 0.522 | 0.484 | 0.44
1 µM, coculture fibroblast: H6076 | 0.791 | 0.7406 | 0.708 | 0.7 | 0.628 | 0.612 | 0.588 | 0.573 | 0.577
1 µM, coculture fibroblast: H6231 | 0.808 | 0.813 | 0.725 | 0.591 | 0.6 | 0.553 | 0.51 | 0.462 | 0.427
1 µM, coculture fibroblast: HADF | 0.701 | 0.608 | 0.565 | 0.577 | 0.47 | 0.442 | 0.407 | 0.384 | 0.38
1 µM, coculture fibroblast: HCFa | 0.76 | 0.68 | 0.639 | 0.624 | 0.546 | 0.516 | 0.473 | 0.443 | 0.416
1 µM, coculture fibroblast: HCPF | 0.8351 | 0.792 | 0.765 | 0.712 | 0.696 | 0.671 | 0.641 | 0.617 | 0.615
1 µM, coculture fibroblast: HHSteC | 0.817 | 0.749 | 0.723 | 0.693 | 0.641 | 0.616 | 0.573 | 0.541 | 0.499
1 µM, coculture fibroblast: HMF | 0.814 | 0.79 | 0.765 | 0.769 | 0.709 | 0.693 | 0.665 | 0.641 | 0.647
1 µM, coculture fibroblast: HPFa | 0.894 | 0.809 | 0.76 | 0.664 | 0.613 | 0.579 | 0.516 | 0.477 | 0.439
1 µM, coculture fibroblast: HUF | 0.852 | 0.776 | 0.729 | 0.6468 | 0.597 | 0.5689 | 0.5171 | 0.488 | 0.463
1 µM, coculture fibroblast: Hs5 | 0.8366 | 0.789 | 0.7515 | 0.7397 | 0.664 | 0.646 | 0.6189 | 0.59275 | 0.5913
1 µM, coculture fibroblast: Hs27A | 0.705 | 0.604 | 0.561 | 0.573 | 0.457 | 0.44 | 0.399 | 0.376 | 0.359
1 µM, coculture fibroblast: Hs343T | 0.823 | 0.787 | 0.74 | 0.702 | 0.655 | 0.629 | 0.594 | 0.585 | 0.567
1 µM, coculture fibroblast: WS1 | 0.8221 | 0.781 | 0.73 | 0.682 | 0.626 | 0.591 | 0.55 | 0.519 | 0.494
10 µM, coculture fibroblast: C12385 | 0.834 | 0.7809 | 0.738 | 0.687 | 0.63 | 0.596 | 0.564 | 0.529 | 0.52
10 µM, coculture fibroblast: H6013 | 0.697 | 0.628 | 0.579 | 0.57 | 0.517 | 0.508 | 0.491 | 0.483 | 0.457
10 µM, coculture fibroblast: H6019 | 0.817 | 0.746 | 0.715 | 0.675 | 0.642 | 0.626 | 0.581 | 0.551 | 0.525
10 µM, coculture fibroblast: H6076 | 0.774 | 0.734 | 0.691 | 0.659 | 0.604 | 0.585 | 0.567 | 0.549 | 0.559
10 µM, coculture fibroblast: H6231 | 0.821 | 0.812 | 0.7452 | 0.622 | 0.632 | 0.596 | 0.552 | 0.516 | 0.48
10 µM, coculture fibroblast: HADF | 0.719 | 0.668 | 0.64 | 0.649 | 0.548 | 0.519 | 0.5 | 0.4766 | 0.4894
10 µM, coculture fibroblast: HCFa | 0.767 | 0.6953 | 0.657 | 0.658 | 0.58 | 0.56 | 0.532 | 0.504 | 0.473
10 µM, coculture fibroblast: HCPF | 0.806 | 0.846 | 0.794 | 0.656 | 0.6995 | 0.6448 | 0.6013 | 0.5538 | 0.531
10 µM, coculture fibroblast: HHSteC | 0.82809 | 0.77 | 0.7422 | 0.712 | 0.6433 | 0.6231 | 0.587 | 0.56 | 0.519
10 µM, coculture fibroblast: HMF | 0.788 | 0.7788 | 0.728 | 0.689 | 0.646 | 0.618 | 0.593 | 0.56509 | 0.541
10 µM, coculture fibroblast: HPFa | 0.86578 | 0.786 | 0.76967 | 0.6783 | 0.626 | 0.595 | 0.543 | 0.512 | 0.489
10 µM, coculture fibroblast: HUF | 0.884 | 0.805 | 0.75683 | 0.69515 | 0.64 | 0.603 | 0.5542 | 0.518 | 0.488
10 µM, coculture fibroblast: Hs5 | 0.842 | 0.904 | 0.84 | 0.789 | 0.735 | 0.694 | 0.652 | 0.62 | 0.603
10 µM, coculture fibroblast: Hs27A | 0.682 | 0.622 | 0.587 | 0.619 | 0.501 | 0.491 | 0.458 | 0.445 | 0.44
10 µM, coculture fibroblast: Hs343T | 0.8209 | 0.871 | 0.798 | 0.692 | 0.69 | 0.639 | 0.591 | 0.559 | 0.517
10 µM, coculture fibroblast: WS1 | 0.855 | 0.768 | 0.711 | 0.632 | 0.567 | 0.521 | 0.472 | 0.437 | 0.407
100 µM, coculture fibroblast: C12385 | 0.832 | 0.76 | 0.728 | 0.696 | 0.665 | 0.652 | 0.629 | 0.602 | 0.583
100 µM, coculture fibroblast: H6013 | 0.663 | 0.56 | 0.505 | 0.473 | 0.436 | 0.437 | 0.418 | 0.41 | 0.349
100 µM, coculture fibroblast: H6019 | 0.743 | 0.6271 | 0.546 | 0.485 | 0.452 | 0.456 | 0.446 | 0.453 | 0.455
100 µM, coculture fibroblast: H6076 | 0.776 | 0.745 | 0.6633 | 0.617 | 0.549 | 0.533 | 0.511 | 0.492 | 0.519
100 µM, coculture fibroblast: H6231 | 0.807 | 0.78345 | 0.7043 | 0.61 | 0.599 | 0.575 | 0.537 | 0.506 | 0.492
100 µM, coculture fibroblast: HADF | 0.735 | 0.666 | 0.63 | 0.631 | 0.542 | 0.518 | 0.495 | 0.477 | 0.475
100 µM, coculture fibroblast: HCFa | 0.7407 | 0.676 | 0.625 | 0.596 | 0.538 | 0.518 | 0.483 | 0.465 | 0.434
100 µM, coculture fibroblast: HCPF | 0.8054 | 0.7883 | 0.7507 | 0.683 | 0.68 | 0.654 | 0.626 | 0.599 | 0.598
100 µM, coculture fibroblast: HHSteC | 0.772 | 0.72 | 0.695 | 0.676 | 0.634 | 0.622 | 0.591 | 0.578 | 0.518
100 µM, coculture fibroblast: HMF | 0.7787 | 0.794 | 0.737 | 0.663 | 0.651 | 0.623 | 0.595 | 0.565 | 0.545
100 µM, coculture fibroblast: HPFa | 0.9 | 0.8004 | 0.77414 | 0.701 | 0.669 | 0.66 | 0.617 | 0.594 | 0.573
100 µM, coculture fibroblast: HUF | 0.87 | 0.776 | 0.735 | 0.658 | 0.612 | 0.583 | 0.544 | 0.517 | 0.501
100 µM, coculture fibroblast: Hs5 | 0.807 | 0.82 | 0.757 | 0.707 | 0.639 | 0.605 | 0.572 | 0.5437 | 0.5345
100 µM, coculture fibroblast: Hs27A | 0.6968 | 0.6001 | 0.5997 | 0.626 | 0.538 | 0.545 | 0.5265 | 0.51557 | 0.497
100 µM, coculture fibroblast: Hs343T | 0.773 | 0.786 | 0.742 | 0.693 | 0.679 | 0.659 | 0.628 | 0.611 | 0.598
100 µM, coculture fibroblast: WS1 | 0.8 | 0.714 | 0.666 | 0.602 | 0.566 | 0.537 | 0.511 | 0.483 | 0.472

Values are relative to the signal before dosing, not to a vehicle control; the signal also falls without drug.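 Labels refer to human fibroblasts, largely primary: uterine (C12385, HUF), lung (H6013), bone (Hs27A), adrenal (HADF), skin (WS1), plus mammary HMF and breast cancer-associated Hs343T. Cancer lines are basal-like or mesenchymal-like triple-negative breast cancer. The paper counts as hits responses shifting over 3x the replicate standard deviation. The tissue of the other fibroblasts is not given here.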
